Some entries repeat one wording, which the source may state once for all of them.
The substances below were run on liver lysosomal (enzyme) extract (assay: Digestion assay with rat liver lysosomal extract). Conditions: HPLC and ESI-MS of digestion aliquots.
Format: biochemical
Experimental: Various amino acid combinations, tetrapeptides, were used to link various first moieties (R^5) and an AENA report group second compound (R^6) to form assay substrates (substrates). Cleavage rate of the peptides were evaluated by analysis of digestion of the substrates in the presence of rat lysosomal extract.
Reporting groups were coupled to the C-terminus of the peptide substrates as described above for UV-vis monitoring to explore the influence of amino acid sequence on kinetics of peptide degradation by HPLC. N-(2-aminoethyl)-4-nitroaniline (AENA) or N-(aminoethyl)-5-napthylamine-1-sulfonic acid (EDANS) were used as reporting groups for HPLC monitoring as neither absorptivity nor lambda maximum were affected for either after cleavage from the peptide. The N-terminus of each peptide substrate was modified with either methoxy polyethylene glycol (PEG12) or N-acetyl galactosamine (NAG(OR)3) (FIG. 1).
Proteolytic digestion experiments were carried out at a fixed substrate concentration (0.51 μmol) using liver lysosomal (enzyme) extract (0.45 μg/μL) in a 25 mM MES solution buffered to pH 5 containing 1% CHAPS and 1.8 mM DTT incubated at 37° C. Enzyme extract was activated in the presence of DTT for 15 minutes at 37° C. prior to addition of AENA labeled peptide substrates. At various time points, up to 26 h, 20 μL aliquots were removed and acidified to a pH of 3 with TFA. Analysis of fractions was performed using HPLC with a Aquasil C18 reverse-phase column (250×4.6, Thermofisher, Waltham, Mass.), monitored at 390 nm and 335 nm for AENA and EDANS respectively. Elution was performed with a gradient of acetonitrile and water buffered with 0.1% formic acid. Generation of unmodified reporter molecule was measured. To minimize freeze thaw cycles the lysosomal extract was dispensed into multiple aliquots prior to storage at −80° C. A new aliquot was employed for each study and used immediately upon thawing. Lysosomal extract was sourced from female Hans Wistar rats by differential density gradient centrifugation (Graham et al. 2000). Protein concentration of lysosomal extract was determined by standard BCA protein assay protocols. […]
Rate (also called velocity of degradation or velocity) was extrapolated during early linear turnover (Table 2). As used herein, rate is defined as the linear rate of reporting group generation at less than 50% completion (digestion rate was assumed to be linear at less than 50% completion). For substrates in which cleavage deviated from consecutive first order kinetics, the percent of reporting group liberated at the endpoint of digestion was used as a metric for comparison.

Row | Substance | generation of H2N-Pro-R6 intermediate (digestion between proline at A1 and A2)
1 | NAG(OAc)3-FCitFP-AENA [Compound 22a] | did not appear to generate a significant amount of H2N-Pro-R^6 intermediate
2 | PEG12-FDFP- AENA [Compound 34b] | did not appear to generate a significant amount of H2N-Pro-R^6 intermediate
3 | NAG(OAc)3-FCitVP- AENA [Compound 26] | did not appear to generate a significant amount of H2N-Pro-R^6 intermediate
4 | NAG(OAc)3-FCitAP- AENA [Compound 30] | did not appear to generate a significant amount of H2N-Pro-R^6 intermediate
5 | PEG12-ACitFP- AENA [Compound 31] | did not appear to generate a significant amount of H2N-Pro-R^6 intermediate
6 | NAG(OH)3-FCitFP-AENA [Compound 22b] | did not appear to generate a significant amount of H2N-Pro-R^6 intermediate
7 | NAG(OAc)3-ACitAP- AENA [Compound 37] | did not appear to generate a significant amount of H2N-Pro-R^6 intermediate
8 | NAG(OAc)3-VCitFP- AENA [Compound 28] | did not appear to generate a significant amount of H2N-Pro-R^6 intermediate
9 | PEG12-FKFP- AENA [Compound 24b] | did not appear to generate a significant amount of H2N-Pro-R^6 intermediate
